Data as given in PubChem BioAssay AID1053209 (Peter MacCallum Cancer Centre, 2014)

- Test: 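Knock-downs that sensitise mouse osteosarcoma cells to doxorubicin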 (follow-up of hits)
- System: mouse primary osteosarcoma cells
- Reagent: single siRNA against mouse genes, 25 nM (text also states 40 nM)
- Time to read-out: about 120 h (48 h before drug, then 72 h with drug)
- Challenge: doxorubicin 100 nM (about IC30-40), added 48 h after transfection, for 72 h
- Detection: 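Viability measured by ATP luminescence with and without doxorubicin, each replicate scaled to non-targeting siRNA NT1, averaged over two replicates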
- Reading the numbers: viability with doxorubicin, vs NT1: higher = more viable cells under doxorubicin; viability ratio, doxorubicin over no drug: higher = less sensitisation to doxorubicin; viability without drug, vs NT1: higher = more viable cells without drug
- Rule for the call: 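Active when doxorubicin viability is at most 0.7 of NT1 and drug-free viability lies between 0.7 and 1.1, class LC dox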
Shown is one part, drawn at random, of about 1,580 reagents tested. In the full data, 207 (13%) got an active call. 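Rows are single siRNAs; four siRNAs per gene were tested, a gene counting as confirmed only when at least two agree.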 Entries without a mark were called inactive. The numbers tell different reagents against one gene apart. No sequences are given here.

gene symbol	reagent	combined effect class	viability with doxorubicin, vs NT1	viability ratio, doxorubicin over no drug	viability without drug, vs NT1
Tiam2	1	normal viability with and without drug	0.9	0.96	0.94
Tiam2	2	normal viability with and without drug	0.95	0.97	0.98
Tiam2	3	normal viability with and without drug	0.79	0.85	0.93
Tiam2	4	normal viability with and without drug	1.07	1.08	0.99
Rps3	1	low viability with and without drug	0.28	0.93	0.3
Rps3	2	low viability only with doxorubicin; normal without drug (active)	0.6	0.81	0.74
Rps3	3	low viability with and without drug	0.21	0.75	0.28
Rps3	4	low viability with and without drug	0.29	1.07	0.27
Fam25a	1	normal viability with and without drug	0.94	0.92	1.02
Fam25a	2	normal viability with and without drug	0.9	0.93	0.97
Fam25a	3	normal viability with and without drug	0.84	0.82	1.02
Fam25a	4	normal viability with and without drug	0.74	0.83	0.89
Mrpl15	1	high viability only without drug	1.03	0.94	1.1
Mrpl15	2	low viability only with doxorubicin; normal without drug (active)	0.66	0.76	0.87
Mrpl15	3	normal viability with and without drug	1.04	1.18	0.88
Mrpl15	4	low viability with and without drug	0.32	0.57	0.56
B9d1	1	normal viability with and without drug	1.06	1	1.06
B9d1	2	normal viability with and without drug	1	0.98	1.02
B9d1	3	low viability with and without drug	0.34	0.55	0.62
B9d1	4	normal viability with and without drug	1.06	1.07	0.99
Rpl5	1	low viability with and without drug	0.44	0.64	0.69
Rpl5	2	low viability with and without drug	0.26	0.52	0.5
Rpl5	3	low viability with and without drug	0.21	0.47	0.45
Rpl5	4	low viability with and without drug	0.26	1.3	0.2
Vsig1	1	normal viability with and without drug	1.02	1.24	0.82
Vsig1	2	low viability only with doxorubicin; normal without drug (active)	0.68	0.87	0.78
Vsig1	3	normal viability with and without drug	1	0.98	1.02
Vsig1	4	normal viability with and without drug	0.88	0.98	0.9
Ncoa6	1	normal viability with and without drug	1.07	1.03	1.04
Ncoa6	2	normal viability with and without drug	0.81	0.8	1.01
Ncoa6	3	normal viability with and without drug	0.99	1.03	0.96
Ncoa6	4	high viability only with doxorubicin	1.15	1.19	0.97
Pirb	1	normal viability with and without drug	0.9	0.92	0.98
Pirb	2	normal viability with and without drug	0.75	0.8	0.94
Pirb	3	low viability only with doxorubicin; normal without drug (active)	0.31	0.41	0.75
Pirb	4	normal viability with and without drug	0.94	0.92	1.02
Nxf1	1	normal viability with and without drug	0.76	0.79	0.96
Nxf1	2	low viability with and without drug	0.23	0.35	0.65
Nxf1	3	low viability with and without drug	0.16	0.26	0.61
Nxf1	4	low viability with and without drug	0.11	0.2	0.55
Rpl38	1	normal viability with and without drug	0.72	0.89	0.81
Rpl38	2	low viability with and without drug	0.22	0.59	0.37
Rpl38	3	low viability with and without drug	0.3	1.07	0.28
Rpl38	4	low viability with and without drug	0.34	0.85	0.4
Kpnb1	1	low viability with and without drug	0.22	0.48	0.46
Kpnb1	2	low viability with and without drug	0.21	0.68	0.31
Kpnb1	3	normal viability with and without drug	0.78	0.85	0.92
Kpnb1	4	low viability with and without drug	0.26	0.53	0.49
Eftud2	1	low viability with and without drug	0.26	0.6	0.43
Eftud2	2	low viability with and without drug	0.48	0.77	0.62
Eftud2	3	low viability only with doxorubicin; normal without drug (active)	0.52	0.72	0.72
Eftud2	4	low viability with and without drug	0.41	1	0.41
Rbm8a	1	low viability with and without drug	0.43	0.66	0.65
Rbm8a	2	low viability only with doxorubicin; normal without drug (active)	0.55	0.59	0.93
Rbm8a	3	low viability with and without drug	0.26	0.42	0.62
Rbm8a	4	low viability only with doxorubicin; normal without drug (active)	0.28	0.39	0.72
Timm8b	1	normal viability with and without drug	0.92	1.07	0.86
Timm8b	2	normal viability with and without drug	0.97	0.93	1.04
Timm8b	3	normal viability with and without drug	0.83	0.85	0.98
Timm8b	4	normal viability with and without drug	0.91	0.86	1.06

Records listed so far called active (7):
gene symbol	reagent	combined effect class	viability with doxorubicin, vs NT1	viability ratio, doxorubicin over no drug	viability without drug, vs NT1
Rps3	2	low viability only with doxorubicin; normal without drug (active)	0.6	0.81	0.74
Mrpl15	2	low viability only with doxorubicin; normal without drug (active)	0.66	0.76	0.87
Vsig1	2	low viability only with doxorubicin; normal without drug (active)	0.68	0.87	0.78
Pirb	3	low viability only with doxorubicin; normal without drug (active)	0.31	0.41	0.75
Eftud2	3	low viability only with doxorubicin; normal without drug (active)	0.52	0.72	0.72
Rbm8a	2	low viability only with doxorubicin; normal without drug (active)	0.55	0.59	0.93
Rbm8a	4	low viability only with doxorubicin; normal without drug (active)	0.28	0.39	0.72
